Among the data in PMC13376213, “Systematic discovery of motif-based interactions of the auxiliary domains of USP family deubiquitinases” (Nature Communications, 2026) are binding values, retold here.

This experiment has as its target FLAG-tagged full-length USP20 (human). The experiment is described as follows: affinity purification with mass spectrometry; FLAG IP from transfected HEK293, four technical replicates, against the empty vector; S-Trap digestion, data-independent LC-MS.

These are yes or no findings as the source states them, for the method shown. Binding seen in cells or lysates may run through a third protein. Here binding means that the protein was enriched with, or labelled near, the bait; the list need not be complete.

B1: endogenous USP19 (enzyme, UniProt O94966 1-1318)
chain: MSGGASATGPRRGPPGLEDTTSKKKQKDRANQESKDGDPRKETGSRYVAQAGLEPLASGDPSASASHAAGITGSRHRTRLFFPSSSGSASTPQEEQTKEGACEDPHDLLATPTPELLLDWRQSAEEVIVKLRVGVGPLQLEDVDAAFTDTDCVVRFAGGQQWGGVFYAEIKSSCAKVQTRKGSLLHLTLPKKVPMLTWPSLLVEADEQLCIPPLNSQTCLLGSEENLAPLAGEKAVPPGNDPVSPAMVRSRNPGKDDCAKEEMAVAADAATLVDEPESMVNLAFVKNDSYEKGPDSVVVHVYVKEICRDTSRVLFREQDFTLIFQTRDGNFLRLHPGCGPHTTFRWQVKLRNLIEPEQCTFCFTASRIDICLRKRQSQRWGGLEAPAARVGGAKVAVPTGPTPLDSTPPGGAPHPLTGQEEARAVEKDKSKARSEDTGLDSVATRTPMEHVTPKPETHLASPKPTCMVPPMPHSPVSGDSVEEEEEEEKKVCLPGFTGLVNLGNTCFMNSVIQSLSNTRELRDFFHDRSFEAEINYNNPLGTGGRLAIGFAVLLRALWKGTHHAFQPSKLKAIVASKASQFTGYAQHDAQEFMAFLLDGLHEDLNRIQNKPYTETVDSDGRPDEVVAEEAWQRHKMRNDSFIVDLFQGQYKSKLVCPVCAKVSITFDPFLYLPVPLPQKQKVLPVFYFAREPHSKPIKFLVSVSKENSTASEVLDSLSQSVHVKPENLRLAEVIKNRFHRVFLPSHSLDTVSPSDTLLCFELLSSELAKERVVVLEVQQRPQVPSVPISKCAACQRKQQSEDEKLKRCTRCYRVGYCNQLCQKTHWPDHKGLCRPENIGYPFLVSVPASRLTYARLAQLLEGYARYSVSVFQPPFQPGRMALESQSPGCTTLLSTGSLEAGDSERDPIQPPELQLVTPMAEGDTGLPRVWAAPDRGPVPSTSGISSEMLASGPIEVGSLPAGERVSRPEAAVPGYQHPSEAMNAHTPQFFIYKIDSSNREQRLEDKGDTPLELGDDCSLALVWRNNERLQEFVLVASKELECAEDPGSAGEAARAGHFTLDQCLNLFTRPEVLAPEEAWYCPQCKQHREASKQLLLWRLPNVLIVQLKRFSFRSFIWRDKINDLVEFPVRNLDLSKFCIGQKEEQLPSYDLYAVINHYGGMIGGHYTACARLPNDRSSQRSDVGWRLFDDSTVTTVDESQVVTRYAYVLFYRRRNSPVERPPRAGHSEHHPDLGPAAEAAASQASRIWQELEAEEEPVPEGSGPLGPWGPQDWVGPLPRGPTTPDEGCLRYFVLGTVAALVALVLNVFYPLVSQSRWR
With B1, the binding result is “binds”.
